Reference: PubChem BioAssay AID2685 (National Center for Advancing Translational Sciences (NCATS), 2010)
The list shows a part of the results. Further columns of the screen follow, without active or inactive calls. Compounds called inactive in the main read-out are mostly missing here. Potencies come from curve fits of mixed quality, noted in brackets.

Experiment: qHTS Assay for Lipid Storage Modulators in Drosophila S3 Cells;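 for cell number change: cells counted by Cell Tracker Red CMTPX staining in the red channel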
Settings: BODIPY lipid droplet fluorescence, 18-24 h; for cell number change: measured here: cell count max response, cells fed with added oleic acid
In short: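 Drosophila S3 cells got compounds at several concentrations plus oleic acid (400 uM solution). Laser-scanning cytometry with 488 nm excitation read lipid droplets at 500-530 nm and cells at 575-640 nm. Percent activity was relative to 20 uM Triacsin C.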

[1] = measured here: lipid fluorescence (Fed channel) AC50, cells fed with added oleic acid
[2] = measured here: cell number channel AC50, cells fed with added oleic acid

Row | SMILES | cell number change [%] | AC50 [1] | AC50 [2]
1 | COc1ccc(C2CC(c3cc(Br)ccc3F)n3nnnc3N2)cc1 (configuration not stated) | -12.7 | 18.4 µM [rising, single point] | –
2 | CCOC(=O)c1cc[n+](CC(=O)c2ccc(F)cc2)cc1 | 86.3 | 20.6 µM [rising, single point] | 18.4 µM [rising, single point]
3 | CC(=O)c1c(Cl)nc2cccc3c2c1-c1ccccc1C3=O | 9.46 | 18.4 µM [falling, single point] | –
4 | COC(=O)c1oc2nc(C)cc(C)c2c1N | 4.1 | 2.06 µM [rising, partial curve] | –
5 | COc1ccc(NS(=O)(=O)c2ccc(N3CCCC3)c(NC(=S)Nc3cccc(S(=O)(=O)N(C)C)c3)c2)cc1 | 1 | 0.731 µM [rising, single point] | –
6 | CCN(CC)C(=O)c1cn(-c2cccc(OC)c2)c(=O)c2ccccc12 | -25.4 | – | 2.59 µM [falling, full curve, poor fit]
7 | Cc1nn(-c2ccccc2)c(CC(C)(C)C(=O)O)c1C(=O)O | 17.2 | 0.82 µM [falling, full curve] | –
8 | O=C(Nc1ccccn1)C1CCN(C(=O)c2ccc(F)cc2)CC1 | 28 | 8.2 µM [rising, partial curve] | –
9 | CSc1nnc2n(-c3ccc(C)cc3)c(=O)c3c4c(sc3n12)COC(C(C)C)C4 (configuration not stated) | 18 | 6.51 µM [falling, single point] | –
10 | CC(C)c1ccc(NC(=O)C(c2ccccc2)N2CCN(C(=O)c3ccco3)CC2)cc1 (configuration not stated) | – | 25.9 µM [falling, partial curve, poor fit] | –
11 | O=C(Nc1cccc(F)c1)NC1(C(=O)N2CCOCC2)CCCCC1 | – | 6.51 µM [falling, single point] | 6.51 µM [falling, single point]
12 | O=C(Nc1ncn[nH]1)c1cc(S(=O)(=O)Nc2cccc(C(F)(F)F)c2)ccc1Cl | -0.616 | – | –
13 | COc1ccc(C2C(C(C)=O)=C(O)C(=O)N2C)c(OC)c1 (configuration not stated) | -24.6 | 6.51 µM [falling, single point] | –
14 | COc1cccc(NS(=O)(=O)c2ccc3c(c2)NC(=O)CC(=O)N3)c1 | -10.1 | 29.1 µM [rising, single point] | –
15 | COc1ccc(N2C(=O)NC(=O)C2=O)cc1 | 18 | – | 0.0231 µM [rising, full curve, poor fit]
16 | CCN(CC(O)Cn1c2ccccc2c2ccccc21)S(=O)(=O)c1ccc(C)cc1 (configuration not stated) | -60.2 | – | 20.6 µM [falling, single point]
17 | CCCC(=O)Nc1cccc(Oc2ccc3c(c2)C(=O)NC3=O)c1 | – | 1.16 µM [falling, full curve] | –
18 | O=C(CNC(=O)c1ccccc1)OCC(=O)c1ccccc1Cl | -6.29 | – | –
19 | COc1ccc(OC)c(NC(=O)CCc2c[nH]c3ccccc23)c1 | – | 0.116 µM [falling, full curve, poor fit] | –
20 | Cn1c(=O)c2c(ncn2CC(COCc2ccccc2Cl)OCc2ccccc2Cl)n(C)c1=O (configuration not stated) | 39.7 | – | –
21 | COc1cc(S(=O)(=O)N(Cc2ccc(C)cc2)Cc2ccco2)ccc1-n1cnnn1 | -2.08 | 0.116 µM [falling, partial curve, poor fit] | –

Four of the compounds above, as tab-separated lines.
Row	SMILES	cell number change [%]	AC50 [1]	AC50 [2]
1	COc1ccc(C2CC(c3cc(Br)ccc3F)n3nnnc3N2)cc1 (configuration not stated)	-12.7	18.4 µM [rising, single point]	–
2	CCOC(=O)c1cc[n+](CC(=O)c2ccc(F)cc2)cc1	86.3	20.6 µM [rising, single point]	18.4 µM [rising, single point]
3	CC(=O)c1c(Cl)nc2cccc3c2c1-c1ccccc1C3=O	9.46	18.4 µM [falling, single point]	–
4	COC(=O)c1oc2nc(C)cc(C)c2c1N	4.1	2.06 µM [rising, partial curve]	–

More structures:

Row | SMILES | cell number change [%] | AC50 [1] | AC50 [2]
22 | O=C(Cc1c[nH]c2ccccc12)NCc1ccc2c(c1)OCO2 | 0.61 | 0.116 µM [rising, full curve, poor fit] | –
23 | CC(C)(C)c1csc(NC(=O)c2ccccc2O)n1 | -23.7 | – | –
24 | COc1ccc(-c2nc(CN3CCC(C(=O)N4CCOCC4)CC3)c(C)o2)cc1OC | -5.19 | 29.1 µM [rising, single point] | –
25 | O=C(c1cc(COc2c(F)cccc2F)on1)N1CCC(c2ccccc2F)C1 (configuration not stated) | -20.9 | 29.1 µM [falling, single point] | –
26 | CCCCOC(=S)NC(=O)c1sc2ccccc2c1Cl | -10.3 | 2.31 µM [falling, full curve, poor fit] | –
27 | O=C(O)c1ccc(-c2sc(Nc3ccccc3)n[n+]2-c2ccccc2)cc1 | 15.2 | 0.461 µM [rising, full curve, poor fit] | –
28 | CCC(C)NC(=O)c1cn(-c2cccc(OC)c2)c(=O)c2ccccc12 (configuration not stated) | -5.67 | 0.0651 µM [rising, full curve, poor fit] | –
29 | Cc1cc(O)cc(O)c1C(=O)Cc1cnn(-c2ccccc2)c1 | -17.3 | 29.1 µM [rising, partial curve] | –
30 | O=C(N/N=C/c1cc2c(cc1Cl)OCO2)c1cc(-c2ccccc2)n[nH]1 | 41.6 | – | 5.17 µM [rising, partial curve, poor fit]
31 | COc1ccc(C2/C=C\CN(CC(C)C)CC(=O)N2Cc2ccc(F)cc2)cc1 (configuration not stated) | – | 11.6 µM [rising, partial curve] | –
32 | CC(NC(=O)c1ccco1)C(=O)NC(C)c1cc(F)c(Cl)cc1Cl (configuration not stated) | 29.4 | 0.58 µM [rising, single point] | –
33 | CCCn1c(SCC(=O)NCc2ccc3c(c2)OCO3)n[nH]c1=O | 3.16 | 0.461 µM [falling, partial curve, poor fit] | –
34 | Cc1cc(C(=O)N/N=C/c2sc(N3CCOCC3)nc2-c2ccccc2)c(C)o1 | -0.88 | – | –
35 | CCCS(=O)(=O)c1cnc(C2COc3ccccc3O2)nc1N (configuration not stated) | 21.6 | 8.2 µM [rising, partial curve] | –
36 | CN(C(=O)CSc1ccc(S(=O)(=O)N2CCCCC2)cn1)c1ccccc1 | -10.4 | 0.184 µM [falling, full curve, poor fit] | –
37 | O=C(CCC1CCCN(C(=O)C2CCCC2)C1)NCc1ccc(F)c(F)c1 (configuration not stated) | -26.1 | 18.4 µM [falling, partial curve] | –
38 | CN(CCOc1ccccc1)C(=O)c1ccc2c(c1)OCO2 | -1.96 | – | 0.00411 µM [falling, full curve, poor fit]
39 | CN(CCC#N)C(=O)CC1(Cc2ccccc2)CCOC(C)(C)C1 (configuration not stated) | -3.52 | – | –
40 | O=C(NCc1ccccn1)c1cc(-c2ccccc2Cl)nc2ccccc12 | 63.4 | 7.31 µM [falling, single point] | 18.4 µM [rising, single point]
41 | C=CCSc1nc(N)c2c(C)c(C)sc2n1 | 5.93 | 1.16 µM [rising, full curve] | –
42 | CCn1c(CSc2nc(C)cc(C)n2)nnc1SCC(=O)Nc1nc(-c2ccccc2)cs1 | -3.64 | 0.651 µM [rising, full curve] | –

Row | SMILES | cell number change [%] | AC50 [1] | AC50 [2]
43 | O=C(c1ccco1)N1CCN(Cc2cc(=O)c(OCc3ccc([N+](=O)[O-])cc3)co2)CC1 | 44.1 | – | 8.2 µM [rising, partial curve, poor fit]
44 | Cc1cc(SC#N)cc(C)c1NC(=O)CCl | -1.63 | – | –
45 | Cc1cc(NC(=O)CCC(=O)N(Cc2ccccc2)C(C(=O)NC2CCCC2)c2ccc(C)o2)no1 (configuration not stated) | -23.1 | 29.1 µM [rising, single point] | –
46 | C=C(C)[C@@H]1CC=C(CN2CCC(N3CCC(C(=O)N4CCCC4)CC3)CC2)CC1 | -17.6 | 29.1 µM [falling, single point] | –
47 | CCOc1ccc(/C=C(\C#N)C(=O)c2c(C)[nH]c3ccccc23)cc1OC | – | 0.291 µM [rising, single point] | –
48 | CC(C)CS(=O)(=O)C1=NSC2=NC(=O)/C(=C\c3ccc(OC(=O)c4ccco4)cc3)C(=N)N21 | -23.8 | 29.1 µM [falling, single point] | –
49 | Cc1cc(=S)nc(-c2ccccn2)[nH]1 | -4.65 | – | –
50 | CN(CC(=O)Nc1cccc(F)c1)C(=O)c1cn(-c2ccccc2)nc1-c1ccccc1 | – | 29.1 µM [falling, single point] | –
51 | CSC1=NC(=O)/C(=C\c2cccc3ccccc23)S1 | – | – | 0.58 µM [rising, single point]
52 | Cc1cc(C)cc(NC(=S)N2C3CCCC2CC(NC(=O)C2CC2)C3)c1 (configuration not stated) | 8.97 | – | –
53 | CCCn1c(C)cc(C(=O)CSc2nnc3n(CCC)c(=O)c4ccccc4n23)c1C | -3.54 | 29.1 µM [falling, single point] | –
54 | CCn1nc(C)c(CN2CCC(n3nccc3NC(=O)Cc3ccccc3)CC2)c1C | -4.18 | 5.17 µM [falling, single point] | –
55 | COc1ccc(OC)c(S(=O)(=O)N(C)CC(=O)N2CCN(c3ccccc3F)CC2)c1 | 146 | 2.59 µM [rising, partial curve] | 4.61 µM [rising, partial curve]
56 | Cc1ccc2c(Cl)cc(Cl)c(OCC(=O)N3CCOCC3)c2n1 | 22.3 | 0.291 µM [rising, partial curve, poor fit] | –
57 | COc1cccc(OC)c1C(=O)Nc1ccc(N2CCN(C(=O)c3ccco3)CC2)cc1 | 5.13 | – | –
58 | O=C(CN1CCSCC1)N/N=C/c1ccc(F)cc1F | -93 | – | 29.1 µM [falling, single point]
59 | COc1ccc(C2NCCc3c2[nH]c2ccccc32)cc1CSc1nc2ccccc2s1 (configuration not stated) | -94.4 | 25.9 µM [falling, partial curve] | 20.6 µM [falling, partial curve]
60 | CCc1ccc(CNC(=O)CCc2nc(-c3cccs3)no2)cc1 | 6.81 | 18.4 µM [falling, partial curve] | –
61 | CC(=O)c1ccc(OCC(O)CN2CCCC(C)C2)cc1 (configuration not stated) | 12.7 | 0.651 µM [falling, single point] | –
62 | O=C(c1ccccc1)N1CCN(CCc2ccccn2)CC1 | -14.4 | 29.1 µM [rising, single point] | –
63 | COc1ccc(NC(=O)CNC(=O)Cn2c(C)cc3ccccc3c2=O)c(OC)c1 | -0.273 | – | –
